Test results published in the supplement of paper PMC10032668.
This is one part of the list. Only hits are listed; about a third recur on repeated control peptides.

Chains of the proteins cited; added tags and fusions are not shown.
DYNLRB1, Q9NP97, UniProt Q9NP97, whole entry: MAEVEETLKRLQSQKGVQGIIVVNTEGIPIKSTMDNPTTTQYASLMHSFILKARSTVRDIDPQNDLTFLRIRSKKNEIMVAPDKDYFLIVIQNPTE
HUWE1, Q7Z6Z7, UniProt Q7Z6Z7, whole entry: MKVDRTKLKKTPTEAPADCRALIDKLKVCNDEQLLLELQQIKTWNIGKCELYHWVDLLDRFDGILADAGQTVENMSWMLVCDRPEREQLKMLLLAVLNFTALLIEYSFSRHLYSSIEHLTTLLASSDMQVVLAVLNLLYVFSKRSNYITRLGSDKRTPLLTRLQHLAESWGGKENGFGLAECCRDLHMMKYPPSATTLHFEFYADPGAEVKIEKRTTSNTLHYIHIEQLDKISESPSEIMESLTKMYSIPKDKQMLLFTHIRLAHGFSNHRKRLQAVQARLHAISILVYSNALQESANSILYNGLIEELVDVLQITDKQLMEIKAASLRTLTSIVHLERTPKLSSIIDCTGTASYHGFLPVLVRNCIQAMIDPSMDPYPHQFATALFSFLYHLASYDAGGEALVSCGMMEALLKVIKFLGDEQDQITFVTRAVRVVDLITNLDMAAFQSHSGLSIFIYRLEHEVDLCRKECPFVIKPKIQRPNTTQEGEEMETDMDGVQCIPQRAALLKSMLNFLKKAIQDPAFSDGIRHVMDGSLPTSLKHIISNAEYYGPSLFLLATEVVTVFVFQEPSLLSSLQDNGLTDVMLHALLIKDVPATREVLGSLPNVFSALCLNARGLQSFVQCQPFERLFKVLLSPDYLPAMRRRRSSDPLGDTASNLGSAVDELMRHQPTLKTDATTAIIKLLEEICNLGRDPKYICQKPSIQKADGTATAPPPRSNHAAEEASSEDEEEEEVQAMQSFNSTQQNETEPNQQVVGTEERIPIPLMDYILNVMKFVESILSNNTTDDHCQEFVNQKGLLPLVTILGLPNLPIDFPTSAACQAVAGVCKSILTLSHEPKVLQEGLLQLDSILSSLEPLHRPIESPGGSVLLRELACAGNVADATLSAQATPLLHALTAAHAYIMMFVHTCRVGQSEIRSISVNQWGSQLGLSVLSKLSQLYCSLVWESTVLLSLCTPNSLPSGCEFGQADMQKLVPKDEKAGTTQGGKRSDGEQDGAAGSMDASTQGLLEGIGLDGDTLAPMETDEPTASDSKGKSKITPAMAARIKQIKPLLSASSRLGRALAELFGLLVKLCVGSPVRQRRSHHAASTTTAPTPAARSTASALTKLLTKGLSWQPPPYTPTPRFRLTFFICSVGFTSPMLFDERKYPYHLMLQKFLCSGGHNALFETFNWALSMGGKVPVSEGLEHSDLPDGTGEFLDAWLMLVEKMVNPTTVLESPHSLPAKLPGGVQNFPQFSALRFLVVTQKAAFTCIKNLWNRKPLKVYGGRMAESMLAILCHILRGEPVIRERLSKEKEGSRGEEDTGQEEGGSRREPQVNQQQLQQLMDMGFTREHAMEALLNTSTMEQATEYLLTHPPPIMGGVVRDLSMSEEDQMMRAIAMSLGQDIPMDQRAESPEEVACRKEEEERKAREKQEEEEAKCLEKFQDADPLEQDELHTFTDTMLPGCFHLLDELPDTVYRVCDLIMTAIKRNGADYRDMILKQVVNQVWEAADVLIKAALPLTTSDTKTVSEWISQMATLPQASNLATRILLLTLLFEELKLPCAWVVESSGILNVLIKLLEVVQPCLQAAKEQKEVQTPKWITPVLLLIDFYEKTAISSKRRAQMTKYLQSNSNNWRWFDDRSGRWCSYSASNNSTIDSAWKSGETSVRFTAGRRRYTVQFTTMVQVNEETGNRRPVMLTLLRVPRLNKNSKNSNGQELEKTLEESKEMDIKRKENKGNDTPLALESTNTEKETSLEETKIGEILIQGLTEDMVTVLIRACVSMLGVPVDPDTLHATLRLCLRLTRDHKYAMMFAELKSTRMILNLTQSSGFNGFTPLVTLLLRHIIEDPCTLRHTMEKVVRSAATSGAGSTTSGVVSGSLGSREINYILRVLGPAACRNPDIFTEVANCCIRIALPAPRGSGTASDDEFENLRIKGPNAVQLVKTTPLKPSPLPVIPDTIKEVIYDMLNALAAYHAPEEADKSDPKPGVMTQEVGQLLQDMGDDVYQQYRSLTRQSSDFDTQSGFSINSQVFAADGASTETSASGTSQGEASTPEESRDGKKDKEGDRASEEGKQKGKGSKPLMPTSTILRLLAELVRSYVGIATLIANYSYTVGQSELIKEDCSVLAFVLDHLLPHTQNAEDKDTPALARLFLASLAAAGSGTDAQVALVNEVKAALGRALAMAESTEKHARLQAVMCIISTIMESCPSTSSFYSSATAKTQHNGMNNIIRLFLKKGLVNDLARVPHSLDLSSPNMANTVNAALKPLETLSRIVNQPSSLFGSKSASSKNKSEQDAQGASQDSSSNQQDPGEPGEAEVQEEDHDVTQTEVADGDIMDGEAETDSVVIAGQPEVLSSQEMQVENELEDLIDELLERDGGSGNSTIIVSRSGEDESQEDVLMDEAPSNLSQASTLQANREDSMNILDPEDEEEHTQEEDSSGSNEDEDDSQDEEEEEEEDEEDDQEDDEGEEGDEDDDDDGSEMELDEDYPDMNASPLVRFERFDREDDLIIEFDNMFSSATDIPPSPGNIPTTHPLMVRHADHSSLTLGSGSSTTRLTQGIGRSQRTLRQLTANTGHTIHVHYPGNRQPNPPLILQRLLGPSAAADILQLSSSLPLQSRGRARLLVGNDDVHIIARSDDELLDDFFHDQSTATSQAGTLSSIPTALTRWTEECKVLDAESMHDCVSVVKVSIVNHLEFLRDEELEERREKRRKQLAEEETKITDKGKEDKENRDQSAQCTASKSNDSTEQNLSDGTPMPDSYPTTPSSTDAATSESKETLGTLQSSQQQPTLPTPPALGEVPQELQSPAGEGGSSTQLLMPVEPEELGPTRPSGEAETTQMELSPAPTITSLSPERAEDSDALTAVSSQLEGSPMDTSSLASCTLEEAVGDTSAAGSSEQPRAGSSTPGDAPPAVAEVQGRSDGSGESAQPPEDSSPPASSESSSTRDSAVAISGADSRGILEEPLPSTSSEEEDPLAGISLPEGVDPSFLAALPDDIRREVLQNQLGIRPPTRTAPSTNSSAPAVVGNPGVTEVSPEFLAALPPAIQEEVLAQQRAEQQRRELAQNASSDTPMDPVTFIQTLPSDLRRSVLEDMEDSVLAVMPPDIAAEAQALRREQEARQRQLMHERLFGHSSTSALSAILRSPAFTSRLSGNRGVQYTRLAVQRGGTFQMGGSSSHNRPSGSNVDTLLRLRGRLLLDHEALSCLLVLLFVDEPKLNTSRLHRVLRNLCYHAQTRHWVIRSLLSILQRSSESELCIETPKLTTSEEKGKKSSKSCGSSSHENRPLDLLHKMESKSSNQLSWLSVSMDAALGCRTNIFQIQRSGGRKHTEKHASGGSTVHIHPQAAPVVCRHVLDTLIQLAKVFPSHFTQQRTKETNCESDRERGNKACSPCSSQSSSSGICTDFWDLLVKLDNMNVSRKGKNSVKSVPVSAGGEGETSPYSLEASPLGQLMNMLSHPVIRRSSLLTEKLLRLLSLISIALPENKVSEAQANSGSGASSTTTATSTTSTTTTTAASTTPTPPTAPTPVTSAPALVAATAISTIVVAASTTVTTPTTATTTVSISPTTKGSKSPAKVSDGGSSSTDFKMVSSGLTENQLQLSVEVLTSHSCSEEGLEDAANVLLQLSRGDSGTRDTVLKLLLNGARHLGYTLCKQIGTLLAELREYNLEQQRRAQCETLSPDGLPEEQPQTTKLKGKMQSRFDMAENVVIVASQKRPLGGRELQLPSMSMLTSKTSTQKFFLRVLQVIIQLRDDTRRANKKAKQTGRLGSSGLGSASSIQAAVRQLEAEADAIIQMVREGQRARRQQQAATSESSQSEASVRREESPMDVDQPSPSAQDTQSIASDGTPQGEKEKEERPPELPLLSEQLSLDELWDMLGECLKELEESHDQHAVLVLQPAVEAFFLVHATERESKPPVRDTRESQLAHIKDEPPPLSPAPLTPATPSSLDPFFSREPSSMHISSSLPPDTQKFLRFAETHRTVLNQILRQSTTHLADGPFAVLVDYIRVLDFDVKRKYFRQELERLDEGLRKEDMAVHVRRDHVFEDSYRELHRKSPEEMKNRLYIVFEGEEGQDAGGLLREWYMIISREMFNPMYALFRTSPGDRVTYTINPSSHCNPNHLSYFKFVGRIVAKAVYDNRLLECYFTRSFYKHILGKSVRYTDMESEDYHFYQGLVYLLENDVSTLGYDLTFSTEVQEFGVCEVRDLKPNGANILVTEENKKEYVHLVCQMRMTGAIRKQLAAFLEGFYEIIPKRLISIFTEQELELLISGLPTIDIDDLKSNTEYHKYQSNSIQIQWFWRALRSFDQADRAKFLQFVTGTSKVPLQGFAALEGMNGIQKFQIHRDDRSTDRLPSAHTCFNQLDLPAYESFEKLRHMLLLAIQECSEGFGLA
SERPINA1, P01009, UniProt P01009, whole entry: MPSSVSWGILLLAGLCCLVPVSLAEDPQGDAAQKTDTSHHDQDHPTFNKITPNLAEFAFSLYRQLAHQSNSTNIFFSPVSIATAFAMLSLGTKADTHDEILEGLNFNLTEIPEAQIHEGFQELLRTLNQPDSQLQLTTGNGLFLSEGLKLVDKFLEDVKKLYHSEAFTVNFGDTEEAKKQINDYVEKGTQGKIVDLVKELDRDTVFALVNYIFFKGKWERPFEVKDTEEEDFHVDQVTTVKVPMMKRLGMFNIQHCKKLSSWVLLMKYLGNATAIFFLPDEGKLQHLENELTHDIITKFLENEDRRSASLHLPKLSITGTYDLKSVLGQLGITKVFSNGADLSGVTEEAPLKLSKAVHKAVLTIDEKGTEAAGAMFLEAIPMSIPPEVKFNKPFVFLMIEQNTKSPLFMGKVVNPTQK
PDLIM7, Q9NR12, UniProt Q9NR12, whole entry: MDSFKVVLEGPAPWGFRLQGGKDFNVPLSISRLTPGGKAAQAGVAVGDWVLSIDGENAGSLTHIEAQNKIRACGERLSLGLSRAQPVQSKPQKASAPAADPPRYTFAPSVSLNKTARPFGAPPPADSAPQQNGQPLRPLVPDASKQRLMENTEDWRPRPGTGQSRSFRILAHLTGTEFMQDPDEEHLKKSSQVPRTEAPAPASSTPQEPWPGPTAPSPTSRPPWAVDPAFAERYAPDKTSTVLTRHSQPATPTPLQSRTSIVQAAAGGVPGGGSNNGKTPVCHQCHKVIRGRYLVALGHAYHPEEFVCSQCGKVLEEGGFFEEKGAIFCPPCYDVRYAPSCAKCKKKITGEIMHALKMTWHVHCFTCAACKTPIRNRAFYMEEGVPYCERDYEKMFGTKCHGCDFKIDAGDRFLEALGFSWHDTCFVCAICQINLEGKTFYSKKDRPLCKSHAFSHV
TUBB2A, Q13885, UniProt Q13885, whole entry: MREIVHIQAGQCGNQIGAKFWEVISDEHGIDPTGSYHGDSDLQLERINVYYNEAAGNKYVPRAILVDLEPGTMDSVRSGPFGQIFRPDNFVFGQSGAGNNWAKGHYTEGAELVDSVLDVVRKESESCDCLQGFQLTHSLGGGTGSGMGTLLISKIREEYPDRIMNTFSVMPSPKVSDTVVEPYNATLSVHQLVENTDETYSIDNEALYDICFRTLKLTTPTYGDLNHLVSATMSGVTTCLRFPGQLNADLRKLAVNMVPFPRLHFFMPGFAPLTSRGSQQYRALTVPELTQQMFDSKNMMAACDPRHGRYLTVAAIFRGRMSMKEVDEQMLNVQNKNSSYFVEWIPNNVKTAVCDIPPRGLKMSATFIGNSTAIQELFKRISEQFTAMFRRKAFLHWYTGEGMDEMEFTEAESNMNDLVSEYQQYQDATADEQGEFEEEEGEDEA
TFG, Q92734, UniProt Q92734, whole entry: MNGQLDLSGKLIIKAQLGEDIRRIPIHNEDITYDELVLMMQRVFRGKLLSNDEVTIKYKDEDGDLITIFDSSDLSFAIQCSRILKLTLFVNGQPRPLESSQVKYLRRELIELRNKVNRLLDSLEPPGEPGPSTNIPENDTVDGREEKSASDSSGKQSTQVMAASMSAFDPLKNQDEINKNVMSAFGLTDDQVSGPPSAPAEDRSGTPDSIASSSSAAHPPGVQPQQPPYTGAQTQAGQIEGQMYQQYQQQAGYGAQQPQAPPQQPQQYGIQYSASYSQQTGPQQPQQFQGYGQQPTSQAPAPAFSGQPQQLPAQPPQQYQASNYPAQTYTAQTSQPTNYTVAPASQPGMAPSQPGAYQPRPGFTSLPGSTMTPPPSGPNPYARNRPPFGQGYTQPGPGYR
POLR1C, O15160, UniProt O15160, whole entry: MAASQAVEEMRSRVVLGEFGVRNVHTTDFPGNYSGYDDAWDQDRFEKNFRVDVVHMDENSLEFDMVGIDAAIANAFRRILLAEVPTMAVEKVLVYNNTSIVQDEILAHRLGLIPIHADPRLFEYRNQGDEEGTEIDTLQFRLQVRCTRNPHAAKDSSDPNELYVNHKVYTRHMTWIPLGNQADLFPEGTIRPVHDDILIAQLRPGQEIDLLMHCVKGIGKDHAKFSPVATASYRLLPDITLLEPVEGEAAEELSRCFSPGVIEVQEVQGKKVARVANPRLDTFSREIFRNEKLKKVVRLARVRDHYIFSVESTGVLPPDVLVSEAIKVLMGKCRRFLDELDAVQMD

Assays:
Experiment in all cases: PRISMA enrichment of interactor (LFQ) in peptide spot vs all other peptide spots (log2 fold change); higher = stronger / more specific binding of the interactor to the peptide
[1] = molecular target: ACAT1, P24752
Description: (§1)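 PRISMA: 15-aa overlapping tiles (offset 8 aa) of 60 microproteins, plus SOS1/GLUT1 control peptides, were spot-synthesized on cellulose membranes in triplicate. Membranes were incubated with benzonase-treated HEK293T lysate, and bound proteins were identified by LC-MS/MS with LFQ. Enrichment is the log2 fold change of each protein in one spot versus all other spots. Only interactors passing the significance cutoff are listed.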

[2] = molecular target: HAGH, Q16775
Description: as §1

[3] = molecular target: HSDL2, Q6YN16
Description: as §1

[4] = molecular target: SEC61G, P60059
Description: as §1

[5] = molecular target: TRAF7, Q6Q0C0
Description: as §1

[6] = molecular target: TTC21B, Q7Z4L5
Description: as §1

[7] = molecular target: WDR74, Q6RFH5
Description: as §1

[8] = molecular target: ZNF638, Q14966
Description: as §1

[9] = molecular target: ACTN4, O43707
Description: as §1

[10] = molecular target: ANP32B, Q92688
Description: as §1

[11] = molecular target: CAPZA1, P52907
Description: as §1

[12] = molecular target: CDC23, Q9UJX2
Description: as §1

[13] = molecular target: CLPTM1, O96005
Description: as §1

[14] = molecular target: COPS7B, Q9H9Q2
Description: as §1

[15] = molecular target: DNAAF5, Q86Y56
Description: as §1

[16] = molecular target: DYNLRB1, Q9NP97
Description: as §1

[17] = molecular target: EARS2, Q5JPH6
Description: as §1

[18] = molecular target: EXOC6, Q8TAG9
Description: as §1

[19] = molecular target: FAM3C, Q92520
Description: as §1

[20] = molecular target: FLOT1, O75955
Description: as §1

[21] = molecular target: GRSF1, Q12849
Description: as §1

[22] = molecular target: HUWE1, Q7Z6Z7
Description: as §1

[23] = molecular target: ITPA, Q9BY32
Description: as §1

[24] = molecular target: MCM2, P49736
Description: as §1

[25] = molecular target: MCM6, Q14566
Description: as §1

[26] = molecular target: MTHFD1, P11586
Description: as §1

[27] = molecular target: NAT10, Q9H0A0
Description: as §1

[28] = molecular target: NOP2, P46087
Description: as §1

[29] = molecular target: NTMT1, Q9BV86
Description: as §1

[30] = molecular target: PRPF38A, Q8NAV1
Description: as §1

[31] = molecular target: PSMB1, P20618
Description: as §1

[32] = molecular target: PSMD12, O00232
Description: as §1

[33] = molecular target: SERPINA1, P01009
Description: as §1

[34] = molecular target: SLC25A11, Q02978
Description: as §1

[35] = molecular target: TCOF1, Q13428
Description: as §1

[36] = molecular target: TRIP4, Q15650
Description: as §1

[37] = molecular target: WTAP, Q15007
Description: as §1

[38] = molecular target: HERC5, Q9UII4
Description: as §1

[39] = molecular target: PDLIM7, Q9NR12
Description: as §1

[40] = molecular target: RANBP3, Q9H6Z4
Description: as §1

[41] = molecular target: RRS1, Q15050
Description: as §1

[42] = molecular target: TUBB2A, Q13885
Description: as §1

[43] = molecular target: FAM98B, Q52LJ0
Description: as §1

[44] = molecular target: MAIP1, Q8WWC4
Description: as §1

[45] = molecular target: PHF8, Q9UPP1
Description: as §1

[46] = molecular target: PSMD13, Q9UNM6
Description: as §1

[47] = molecular target: SYNE2, Q8WXH0
Description: as §1

[48] = molecular target: TFG, Q92734
Description: as §1

[49] = molecular target: ASMTL, O95671
Description: as §1

[50] = molecular target: CCDC58, Q4VC31
Description: as §1

[51] = molecular target: CDK2, P24941
Description: as §1

[52] = molecular target: DLD, P09622
Description: as §1

[53] = molecular target: FAM50B, Q9Y247
Description: as §1

[54] = molecular target: GMPS, P49915
Description: as §1

[55] = substrate: INIP, Q9NRY2
Description: as §1

[56] = molecular target: KHDRBS1, Q07666
Description: as §1

[57] = molecular target: MRPL48, Q96GC5
Description: as §1

[58] = molecular target: MRPS5, P82675
Description: as §1

[59] = molecular target: MRTO4, Q9UKD2
Description: as §1

[60] = molecular target: NKAP, Q8N5F7
Description: as §1

[61] = molecular target: PAWR, Q96IZ0
Description: as §1

[62] = molecular target: PGRMC1, O00264
Description: as §1

[63] = molecular target: POGZ, Q7Z3K3
Description: as §1

[64] = molecular target: POLR1C, O15160
Description: as §1

[65] = molecular target: VPS36, Q86VN1
Description: as §1

[66] = molecular target: ZNF22, P17026
Description: as §1

B1: CTD-2366F13.1 (peptide)
chain: SFSPGGRSWCRRADA
[1]
  PRISMA enrichment of interactor (log2): 7.58
[2]
  PRISMA enrichment of interactor (log2): 6.31
[3]
  PRISMA enrichment of interactor (log2): 4.86
[4]
  PRISMA enrichment of interactor (log2): 4.47
[5]
  PRISMA enrichment of interactor (log2): 5.83
[6]
  PRISMA enrichment of interactor (log2): 5.38
[7]
  PRISMA enrichment of interactor (log2): 5.04
[8]
  PRISMA enrichment of interactor (log2): 5.08

B2: CTD-2366F13.1 (peptide)
chain: LPTIEKRRDSMRLEM
[1]
  PRISMA enrichment of interactor (log2): 5.24
[9]
  PRISMA enrichment of interactor (log2): 6.31
[10]
  PRISMA enrichment of interactor (log2): 6.56
[11]
  PRISMA enrichment of interactor (log2): 5.39
[12]
  PRISMA enrichment of interactor (log2): 6.97
[13]
  PRISMA enrichment of interactor (log2): 4.3
[14]
  PRISMA enrichment of interactor (log2): 7.24
[15]
  PRISMA enrichment of interactor (log2): 4.32
[16]
  PRISMA enrichment of interactor (log2): 5.37
[17]
  PRISMA enrichment of interactor (log2): 6.02
[18]
  PRISMA enrichment of interactor (log2): 4.99
[19]
  PRISMA enrichment of interactor (log2): 4.75
[20]
  PRISMA enrichment of interactor (log2): 4.45
[21]
  PRISMA enrichment of interactor (log2): 4.65
[22]
  PRISMA enrichment of interactor (log2): 6.91
[23]
  PRISMA enrichment of interactor (log2): 5.72
[24]
  PRISMA enrichment of interactor (log2): 6.12
[25]
  PRISMA enrichment of interactor (log2): 6.03
[26]
  PRISMA enrichment of interactor (log2): 5.25
[27]
  PRISMA enrichment of interactor (log2): 6.08
[28]
  PRISMA enrichment of interactor (log2): 5.15
[29]
  PRISMA enrichment of interactor (log2): 4.44
[30]
  PRISMA enrichment of interactor (log2): 6.52
[31]
  PRISMA enrichment of interactor (log2): 8.34
[32]
  PRISMA enrichment of interactor (log2): 5.58
[33]
  PRISMA enrichment of interactor (log2): 6.51
[34]
  PRISMA enrichment of interactor (log2): 4.55
[35]
  PRISMA enrichment of interactor (log2): 5.56
[36]
  PRISMA enrichment of interactor (log2): 4.58
[37]
  PRISMA enrichment of interactor (log2): 7.6

B3: RP11-432J24.5_2 (peptide)
chain: RNLPDDPECSPPTFP
[1]
  PRISMA enrichment of interactor (log2): 8.81
[38]
  PRISMA enrichment of interactor (log2): 4.54
[39]
  PRISMA enrichment of interactor (log2): 6.22
[40]
  PRISMA enrichment of interactor (log2): 8.12
[41]
  PRISMA enrichment of interactor (log2): 6.35
[42]
  PRISMA enrichment of interactor (log2): 6.91

B4: RP1-206D15.6 (peptide)
chain: MRPVGLVLRWKKRAV
[1]
  PRISMA enrichment of interactor (log2): 8.48
[43]
  PRISMA enrichment of interactor (log2): 7.11
[44]
  PRISMA enrichment of interactor (log2): 4.57
[45]
  PRISMA enrichment of interactor (log2): 5.28
[46]
  PRISMA enrichment of interactor (log2): 6.24
[47]
  PRISMA enrichment of interactor (log2): 4.86
[48]
  PRISMA enrichment of interactor (log2): 4.12

B5: GAS5 (peptide)
chain: NSSHWHTGIRQKAGS
[1]
  PRISMA enrichment of interactor (log2): 5.38
[49]
  PRISMA enrichment of interactor (log2): 4.69
[50]
  PRISMA enrichment of interactor (log2): 4.41
[51]
  PRISMA enrichment of interactor (log2): 4.61
[52]
  PRISMA enrichment of interactor (log2): 4.11
[53]
  PRISMA enrichment of interactor (log2): 6.63
[54]
  PRISMA enrichment of interactor (log2): 6.74
[55]
  PRISMA enrichment of interactor (log2): 5.3
[56]
  PRISMA enrichment of interactor (log2): 5.88
[57]
  PRISMA enrichment of interactor (log2): 4.35
[58]
  PRISMA enrichment of interactor (log2): 5.98
[59]
  PRISMA enrichment of interactor (log2): 5.57
[60]
  PRISMA enrichment of interactor (log2): 4.95
[61]
  PRISMA enrichment of interactor (log2): 4.14
[62]
  PRISMA enrichment of interactor (log2): 5.68
[63]
  PRISMA enrichment of interactor (log2): 4.35
[64]
  PRISMA enrichment of interactor (log2): 5.84
[65]
  PRISMA enrichment of interactor (log2): 4.04
[66]
  PRISMA enrichment of interactor (log2): 5.45
